Percent effect of library compounds

By UniProt entry, the sequences of proteins in these tests, tags left out. Residues count along the entry.
UniProt I6X8D2, whole entry: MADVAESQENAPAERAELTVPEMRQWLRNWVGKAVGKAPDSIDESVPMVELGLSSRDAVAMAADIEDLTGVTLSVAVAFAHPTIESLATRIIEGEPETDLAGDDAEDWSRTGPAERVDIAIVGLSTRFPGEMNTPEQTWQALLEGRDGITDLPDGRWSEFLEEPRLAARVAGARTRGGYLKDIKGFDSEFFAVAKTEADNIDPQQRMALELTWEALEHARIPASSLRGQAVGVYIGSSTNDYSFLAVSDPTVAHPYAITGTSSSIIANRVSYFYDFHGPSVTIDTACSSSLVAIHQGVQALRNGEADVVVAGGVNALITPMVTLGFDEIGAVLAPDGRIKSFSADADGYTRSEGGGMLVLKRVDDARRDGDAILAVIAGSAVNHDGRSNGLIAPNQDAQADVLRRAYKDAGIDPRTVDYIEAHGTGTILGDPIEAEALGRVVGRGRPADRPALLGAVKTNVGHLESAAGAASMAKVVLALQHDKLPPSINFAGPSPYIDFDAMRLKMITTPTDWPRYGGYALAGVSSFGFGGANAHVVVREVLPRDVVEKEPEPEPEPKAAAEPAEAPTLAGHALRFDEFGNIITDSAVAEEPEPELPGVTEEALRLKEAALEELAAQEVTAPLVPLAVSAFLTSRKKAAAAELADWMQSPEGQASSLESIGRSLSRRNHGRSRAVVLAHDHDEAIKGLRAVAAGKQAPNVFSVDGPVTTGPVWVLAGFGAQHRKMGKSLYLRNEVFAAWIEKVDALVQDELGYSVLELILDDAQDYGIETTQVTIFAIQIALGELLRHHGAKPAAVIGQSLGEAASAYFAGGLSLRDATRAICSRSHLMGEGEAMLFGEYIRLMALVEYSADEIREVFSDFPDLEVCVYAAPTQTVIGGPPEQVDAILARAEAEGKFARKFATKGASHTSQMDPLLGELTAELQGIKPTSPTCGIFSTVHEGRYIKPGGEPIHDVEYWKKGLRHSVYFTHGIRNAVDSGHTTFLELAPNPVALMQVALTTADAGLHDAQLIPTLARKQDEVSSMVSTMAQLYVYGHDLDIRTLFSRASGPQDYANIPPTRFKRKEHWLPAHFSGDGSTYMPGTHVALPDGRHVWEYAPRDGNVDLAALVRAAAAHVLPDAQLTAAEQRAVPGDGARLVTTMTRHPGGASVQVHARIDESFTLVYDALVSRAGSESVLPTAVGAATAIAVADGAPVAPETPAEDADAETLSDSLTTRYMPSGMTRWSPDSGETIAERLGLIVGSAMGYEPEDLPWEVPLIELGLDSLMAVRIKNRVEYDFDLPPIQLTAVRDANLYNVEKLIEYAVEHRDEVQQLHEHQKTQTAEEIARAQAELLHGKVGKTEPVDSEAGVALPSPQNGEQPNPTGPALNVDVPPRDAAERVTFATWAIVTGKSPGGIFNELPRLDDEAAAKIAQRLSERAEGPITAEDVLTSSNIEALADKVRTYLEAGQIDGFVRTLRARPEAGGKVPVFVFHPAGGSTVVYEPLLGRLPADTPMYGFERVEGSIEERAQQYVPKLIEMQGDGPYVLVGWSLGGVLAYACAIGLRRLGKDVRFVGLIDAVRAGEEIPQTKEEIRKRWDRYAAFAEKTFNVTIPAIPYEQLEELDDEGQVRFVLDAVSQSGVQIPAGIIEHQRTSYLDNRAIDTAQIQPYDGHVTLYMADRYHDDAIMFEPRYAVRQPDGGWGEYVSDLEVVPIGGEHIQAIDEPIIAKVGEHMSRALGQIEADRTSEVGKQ
UniProt Q4DA54, 1-478: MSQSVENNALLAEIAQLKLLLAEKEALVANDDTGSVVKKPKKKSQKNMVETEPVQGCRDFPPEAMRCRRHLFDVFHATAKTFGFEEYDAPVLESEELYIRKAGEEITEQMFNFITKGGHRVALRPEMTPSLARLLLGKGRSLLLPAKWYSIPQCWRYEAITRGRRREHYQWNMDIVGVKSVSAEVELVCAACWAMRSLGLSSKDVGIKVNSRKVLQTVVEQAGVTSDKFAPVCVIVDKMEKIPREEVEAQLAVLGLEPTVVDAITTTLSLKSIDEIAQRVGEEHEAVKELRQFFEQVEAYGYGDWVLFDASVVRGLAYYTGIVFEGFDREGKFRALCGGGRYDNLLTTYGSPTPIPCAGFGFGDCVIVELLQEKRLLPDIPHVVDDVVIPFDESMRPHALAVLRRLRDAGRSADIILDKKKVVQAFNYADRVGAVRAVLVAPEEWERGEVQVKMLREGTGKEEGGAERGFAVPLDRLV

Measurements from “University of Dundee, Small-Polar-MMV Screening Library” (2021), ChEMBL document CHEMBL3988442.

Pks13 thioesterase: 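Enzyme assay of the thioesterase domain of polyketide synthase 13; the read-out is not stated. Target: Polyketide synthase Pks13, Mycobacterium tuberculosis (UniProt I6X8D2). Compounds at 30 µM. The record gives no direction; the compounds picked for IC50 retests had high values, so higher reads as stronger inhibition. Size under these conditions: about 67,000 compounds, about 300 of them at 50% or above in at least one test.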
TcHisRS: 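Enzyme assay of histidyl-tRNA synthetase; the read-out is not stated. Target: Histidine-tRNA ligase, Trypanosoma cruzi CL Brener (UniProt Q4DA54). Compounds at 30 µM. Direction is inferred from retests: higher values go with stronger inhibition. Of about 69,000 compounds tested this way, about 31 (0.045%) reached 50% or more in at least one test.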

The filed quantity is “Percent Effect” (%).
The record does not define 0% and 100%; most values in the screen are far below 50% and negative numbers occur (in some assays of this library far below -100).
This is an unselected part of the compounds tested.
A dash means the value is not listed here; it may have been measured.

SMILES	Pks13 thioesterase	TcHisRS
CC(C)n1cc(CN2CCCN(C(=O)C(C)n3cccn3)CC2)cn1 (stereo unspecified)	-1.416	4.651
CC(C)(C)C(O)CN1CCN(C(=O)c2ccc3c(c2)COC3)CC1 (stereo unspecified)	-19.32	-0.5714
CNC(=O)[C@H]1C[C@@H]2CN(C(=O)c3ccoc3)C[C@@H]2N1S(C)(=O)=O	-10.54	8.571
CCc1nc(-c2noc3ccc(C(=O)NCCN(C)C)cc23)co1	-8.309	1.935
CS(=O)(=O)CCCN(CCc1cccc(F)c1)C1CC1	19.04	5
CN(Cc1cnn(C)c1)C(=O)C1CCCN1Cc1ccccn1 (stereo unspecified)	-8.013	1.153
CN(C)C(=O)CN1CCOCC2(CCN(c3ncc(F)cn3)CC2)C1	-17.92	0
CC(C)Cn1ncc2cc(C(=O)N(C)Cc3cccc(O)c3)cnc21	-12.71	8.333
O=C1CCCN1CCCNCc1cc(O)c2cccc(F)c2n1	3.206	7.2
Cc1ccc2c(n1)N(CCN(C)C)CCN(C(=O)c1ccoc1)C2	-10.96	9.184
COC(=O)c1sccc1S(=O)(=O)N1CCC(Oc2ncccc2Cl)CC1	-9.469	-6.612
COc1ccc(-c2nc(CN3CC(n4nc(C)cc4C)C3)no2)cc1	14.73	-16.74
FC(F)(F)C1CCc2nnc(CNCc3ccsc3)n2C1 (stereo unspecified)	0.1115	-0.8475
O=C(CCn1cccn1)N1CCN(CC(F)F)CC1	-12.97	3.448
CN(C)c1ccc(C(O)CNS(=O)(=O)C2CC2)cc1 (stereo unspecified)	3.323	2.062
CC(C)COc1cccc(-c2nc3c([nH]2)CCNC3)c1	-2.759	5.6
CC(C)(C)C(=O)N1CCC2(CC1)CC(Oc1ccccc1)CO2 (stereo unspecified)	31.2	1.493
CC(=O)N1CC[C@]2(O)CCN(Cc3nc(C)c[nH]3)C[C@@H]2C1	-13.19	-3.448
COCCNC(=O)Cn1c(-c2ccc(Cl)cc2)nc(C)c(CCO)c1=O	-	13
Cc1nc(CN2CCCC(NCc3nc4ccccc4s3)C2)no1 (stereo unspecified)	-10.78	5.172
Cc1cc(O)c(OCC(=O)/N=c2\[nH]c(C)cs2)cn1	-2.249	7.453
Cc1cc(N2CCCC3(CN(C)C(=O)O3)C2)c2cc3c(cc2n1)OCO3 (stereo unspecified)	-13.5	-6.061
Cc1cccc2c1cnn2CCC(=O)NCC(=O)N(C)C	-25.84	1.639
CC(C)Cc1nc(CN2CCC3(CCCO3)CCC2=O)no1 (stereo unspecified)	-23.21	4.469
CC(C(=O)N1CCCN(Cc2cnn(C(C)C)c2)CC1)n1ccnc1 (stereo unspecified)	-9.458	6.977
Cc1ccc(N2CCCC(NCc3cscn3)C2)nn1 (stereo unspecified)	-	3.759
NC(=O)c1cn[nH]c1C1CCCN1C(=O)COc1ccccc1 (stereo unspecified)	4.644	4.615
CN(Cc1cc2n(n1)CCN(C(=O)c1cccnc1)C2)Cc1nccs1	-6.113	6.468
O=C(CCc1cccs1)N1CCCC(N2CCNC2=O)C1 (stereo unspecified)	-5.288	6.122
CC(C)Oc1ccc2c(NC(=O)CNC(N)=O)nn(CC(F)(F)F)c2c1	-20.74	2.424
Cc1c(C(C)Nc2ncnc3sccc23)cnn1C (stereo unspecified)	-14.7	5.202
COCCN1CCN(C(=O)N2CCCC2)Cc2ccc(C)nc21	-21.1	1.02
O=C(NCc1ccc2c(c1)OCO2)Nc1cccnc1N1CCCC1	3.751	7.849
Cc1nc(SCC(=O)Nc2ccc(C(N)=O)cc2)c(C#N)c(C)c1C	-19.73	-10
CN(CCc1ccccc1)c1cnn(Cc2ccccn2)c(=O)c1	-25.75	-0.5236
COc1ccccc1C(=O)N(C)Cc1nnc2ccccn12	-18.7	8.455
CC(C)N(Cc1ccc(C(=O)O)o1)C(C)C	-0.01266	-2.469
N#CCCN(C(=O)COC1CCCC1)C1CC1	-16.58	5.732
CC(=O)c1cn(CCC(=O)N[C@H](C(=O)O)C(C)C)c2ccccc12	-27.76	-1.639
Cc1oc(C(=O)Nc2cccc(Cl)c2C)cc1S(N)(=O)=O	-4.303	6.061
Cc1ccc2[nH]c3c(c2c1)CN(C(=O)CN(C)CC1OCCO1)CC3	23.38	12.87
Nc1nccnc1C1CN(C(=O)c2ccnnc2)CCO1 (stereo unspecified)	-	1.493
Cc1ccccc1CN1CCC[C@H]1c1nc(-c2cncnc2N)no1	3.026	9.783
Cc1nc2c(c(=O)[nH]1)CCN(C(=O)c1cccc3nccnc13)C2	1.203	5.319
CCN1CC(CN2CCOCC2)Oc2ncccc2C1=O (stereo unspecified)	-0.4496	0
COCCCN(C)C(=O)c1nnn(-c2ccccc2Cl)c1C	-32.75	3.185
O=C(CCc1ccccc1Cl)NS(=O)(=O)c1ccc2c(c1)OCCO2	-11.29	-1.775
O=C(Nc1ccc2scnc2c1)N1CCN([C@H]2CCCC[C@@H]2O)CC1	-20.56	7.514
CC(C)c1nnc2n1CCN(C(=O)c1ccc(OCC3CC3)cc1)C2	-21	-1.681
COCCN(C)C(=O)c1nc2c(s1)CCCN2C(=O)C1CC1	-22.11	3.279
COCCN1CC[C@@H]2OC(COCC(=O)N3CCCC3)CC[C@@H]21 (stereo partly specified)	3.52	3.509
CNC(=O)N1CCc2nc(C(=O)Nc3cccnc3)sc2CC1	5.329	9.195
O=C1CC2(CCN(Cc3ccncc3)C2)CN1c1cccc(F)c1 (stereo unspecified)	-25.69	3.261
Cc1ncc(CNC(=O)NC2CCN(C3CCCC3)CC2)s1	-23.42	6.077
Cc1c(C(=O)NCCC(=O)N2CCOCC2)sc2ccc(F)cc12	-8.697	2.632
CCC(CC)(CNC(=O)NC1CCCC1(C)C)S(C)(=O)=O (stereo unspecified)	-5.897	8.247
COCCn1cnc2c(F)cc(Br)cc2c1=O	-6.77	11.11
CS(=O)(=O)N1CCOC2(CCN(c3nccs3)CC2)c2ccccc21	-9.124	5.376
c1cncc(CN2CC[C@H]3O[C@@H](COCC4CC4)CC[C@H]32)c1	-32.74	4.918
CNC(=O)c1cccnc1N1CCC(OCc2ccccc2)CC1	-2.504	8.173
CCNC(=O)c1cc(OC)c(OC)cc1N(C)S(C)(=O)=O	11.61	1.932
OC1CCN(CCNc2ncc3c(n2)CCN3c2ccccc2)CC1	-3.015	5.814
CCCN1CCCn2nc(CNC(=O)CCOC)cc2C1	-36.2	4.865
NCCCC(=O)NCC1(O)CCCN(c2ccnc3cccnc23)C1 (stereo unspecified)	13.71	6.061
CC(Sc1nnnn1C1CCOCC1)C(F)(F)F (stereo unspecified)	-2.244	3.448

7 of the entries, repeated:

SMILES	Pks13 thioesterase	TcHisRS
COCCN1CCN(C(=O)N2CCCC2)Cc2ccc(C)nc21	-21.1	1.02
CN(Cc1cc2n(n1)CCN(C(=O)c1cccnc1)C2)Cc1nccs1	-6.113	6.468
Cc1nc(CN2CCCC(NCc3nc4ccccc4s3)C2)no1 (stereo unspecified)	-10.78	5.172
CN(C)c1ccc(C(O)CNS(=O)(=O)C2CC2)cc1 (stereo unspecified)	3.323	2.062
CC(C(=O)N1CCCN(Cc2cnn(C(C)C)c2)CC1)n1ccnc1 (stereo unspecified)	-9.458	6.977
CS(=O)(=O)CCCN(CCc1cccc(F)c1)C1CC1	19.04	5
COCCCN(C)C(=O)c1nnn(-c2ccccc2Cl)c1C	-32.75	3.185